The values below come from PMC7810865.

By UniProt entry, the sequences of proteins in these tests, tags left out.
UniProt Q02548: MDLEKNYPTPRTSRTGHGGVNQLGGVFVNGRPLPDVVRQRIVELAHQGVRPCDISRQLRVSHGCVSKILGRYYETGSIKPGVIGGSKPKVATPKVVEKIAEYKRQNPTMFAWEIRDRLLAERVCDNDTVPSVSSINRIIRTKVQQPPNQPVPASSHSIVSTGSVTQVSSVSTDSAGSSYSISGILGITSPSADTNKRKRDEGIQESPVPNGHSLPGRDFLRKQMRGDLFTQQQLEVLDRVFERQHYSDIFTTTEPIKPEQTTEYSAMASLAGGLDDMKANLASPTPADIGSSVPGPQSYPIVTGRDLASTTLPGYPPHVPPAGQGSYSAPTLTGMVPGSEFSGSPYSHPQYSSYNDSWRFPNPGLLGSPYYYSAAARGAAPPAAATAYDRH
UniProt P49848: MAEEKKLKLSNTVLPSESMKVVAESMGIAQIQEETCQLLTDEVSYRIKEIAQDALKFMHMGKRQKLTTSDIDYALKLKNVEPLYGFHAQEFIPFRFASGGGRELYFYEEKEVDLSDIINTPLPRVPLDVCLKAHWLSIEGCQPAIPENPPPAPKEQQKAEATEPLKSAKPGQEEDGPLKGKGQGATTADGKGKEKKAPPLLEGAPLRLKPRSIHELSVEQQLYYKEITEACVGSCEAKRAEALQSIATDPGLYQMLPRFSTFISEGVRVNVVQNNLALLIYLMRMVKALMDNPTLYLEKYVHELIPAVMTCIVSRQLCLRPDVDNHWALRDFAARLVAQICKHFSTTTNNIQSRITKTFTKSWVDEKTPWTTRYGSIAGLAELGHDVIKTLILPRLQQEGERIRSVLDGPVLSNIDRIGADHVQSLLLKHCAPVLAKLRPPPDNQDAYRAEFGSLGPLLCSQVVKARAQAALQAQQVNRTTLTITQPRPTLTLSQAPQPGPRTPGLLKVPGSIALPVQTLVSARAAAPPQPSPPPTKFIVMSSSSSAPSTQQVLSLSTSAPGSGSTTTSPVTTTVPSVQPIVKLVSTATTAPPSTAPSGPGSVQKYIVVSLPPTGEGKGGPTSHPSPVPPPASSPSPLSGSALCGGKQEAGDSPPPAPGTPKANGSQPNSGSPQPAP
UniProt Q15291: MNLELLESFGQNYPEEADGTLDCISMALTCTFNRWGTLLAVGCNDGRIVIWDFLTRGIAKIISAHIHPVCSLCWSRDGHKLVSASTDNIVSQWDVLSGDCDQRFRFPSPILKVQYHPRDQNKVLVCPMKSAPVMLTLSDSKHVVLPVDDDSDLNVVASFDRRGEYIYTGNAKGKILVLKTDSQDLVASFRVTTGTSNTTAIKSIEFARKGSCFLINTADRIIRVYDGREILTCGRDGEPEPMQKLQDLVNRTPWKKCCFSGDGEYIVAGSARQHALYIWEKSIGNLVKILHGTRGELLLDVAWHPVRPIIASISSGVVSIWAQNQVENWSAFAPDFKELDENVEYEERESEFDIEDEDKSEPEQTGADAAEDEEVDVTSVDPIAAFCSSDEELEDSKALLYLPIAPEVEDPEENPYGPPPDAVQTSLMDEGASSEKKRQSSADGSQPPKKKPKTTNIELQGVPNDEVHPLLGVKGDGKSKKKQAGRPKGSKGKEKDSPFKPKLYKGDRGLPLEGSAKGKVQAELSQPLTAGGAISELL
UniProt Q03164: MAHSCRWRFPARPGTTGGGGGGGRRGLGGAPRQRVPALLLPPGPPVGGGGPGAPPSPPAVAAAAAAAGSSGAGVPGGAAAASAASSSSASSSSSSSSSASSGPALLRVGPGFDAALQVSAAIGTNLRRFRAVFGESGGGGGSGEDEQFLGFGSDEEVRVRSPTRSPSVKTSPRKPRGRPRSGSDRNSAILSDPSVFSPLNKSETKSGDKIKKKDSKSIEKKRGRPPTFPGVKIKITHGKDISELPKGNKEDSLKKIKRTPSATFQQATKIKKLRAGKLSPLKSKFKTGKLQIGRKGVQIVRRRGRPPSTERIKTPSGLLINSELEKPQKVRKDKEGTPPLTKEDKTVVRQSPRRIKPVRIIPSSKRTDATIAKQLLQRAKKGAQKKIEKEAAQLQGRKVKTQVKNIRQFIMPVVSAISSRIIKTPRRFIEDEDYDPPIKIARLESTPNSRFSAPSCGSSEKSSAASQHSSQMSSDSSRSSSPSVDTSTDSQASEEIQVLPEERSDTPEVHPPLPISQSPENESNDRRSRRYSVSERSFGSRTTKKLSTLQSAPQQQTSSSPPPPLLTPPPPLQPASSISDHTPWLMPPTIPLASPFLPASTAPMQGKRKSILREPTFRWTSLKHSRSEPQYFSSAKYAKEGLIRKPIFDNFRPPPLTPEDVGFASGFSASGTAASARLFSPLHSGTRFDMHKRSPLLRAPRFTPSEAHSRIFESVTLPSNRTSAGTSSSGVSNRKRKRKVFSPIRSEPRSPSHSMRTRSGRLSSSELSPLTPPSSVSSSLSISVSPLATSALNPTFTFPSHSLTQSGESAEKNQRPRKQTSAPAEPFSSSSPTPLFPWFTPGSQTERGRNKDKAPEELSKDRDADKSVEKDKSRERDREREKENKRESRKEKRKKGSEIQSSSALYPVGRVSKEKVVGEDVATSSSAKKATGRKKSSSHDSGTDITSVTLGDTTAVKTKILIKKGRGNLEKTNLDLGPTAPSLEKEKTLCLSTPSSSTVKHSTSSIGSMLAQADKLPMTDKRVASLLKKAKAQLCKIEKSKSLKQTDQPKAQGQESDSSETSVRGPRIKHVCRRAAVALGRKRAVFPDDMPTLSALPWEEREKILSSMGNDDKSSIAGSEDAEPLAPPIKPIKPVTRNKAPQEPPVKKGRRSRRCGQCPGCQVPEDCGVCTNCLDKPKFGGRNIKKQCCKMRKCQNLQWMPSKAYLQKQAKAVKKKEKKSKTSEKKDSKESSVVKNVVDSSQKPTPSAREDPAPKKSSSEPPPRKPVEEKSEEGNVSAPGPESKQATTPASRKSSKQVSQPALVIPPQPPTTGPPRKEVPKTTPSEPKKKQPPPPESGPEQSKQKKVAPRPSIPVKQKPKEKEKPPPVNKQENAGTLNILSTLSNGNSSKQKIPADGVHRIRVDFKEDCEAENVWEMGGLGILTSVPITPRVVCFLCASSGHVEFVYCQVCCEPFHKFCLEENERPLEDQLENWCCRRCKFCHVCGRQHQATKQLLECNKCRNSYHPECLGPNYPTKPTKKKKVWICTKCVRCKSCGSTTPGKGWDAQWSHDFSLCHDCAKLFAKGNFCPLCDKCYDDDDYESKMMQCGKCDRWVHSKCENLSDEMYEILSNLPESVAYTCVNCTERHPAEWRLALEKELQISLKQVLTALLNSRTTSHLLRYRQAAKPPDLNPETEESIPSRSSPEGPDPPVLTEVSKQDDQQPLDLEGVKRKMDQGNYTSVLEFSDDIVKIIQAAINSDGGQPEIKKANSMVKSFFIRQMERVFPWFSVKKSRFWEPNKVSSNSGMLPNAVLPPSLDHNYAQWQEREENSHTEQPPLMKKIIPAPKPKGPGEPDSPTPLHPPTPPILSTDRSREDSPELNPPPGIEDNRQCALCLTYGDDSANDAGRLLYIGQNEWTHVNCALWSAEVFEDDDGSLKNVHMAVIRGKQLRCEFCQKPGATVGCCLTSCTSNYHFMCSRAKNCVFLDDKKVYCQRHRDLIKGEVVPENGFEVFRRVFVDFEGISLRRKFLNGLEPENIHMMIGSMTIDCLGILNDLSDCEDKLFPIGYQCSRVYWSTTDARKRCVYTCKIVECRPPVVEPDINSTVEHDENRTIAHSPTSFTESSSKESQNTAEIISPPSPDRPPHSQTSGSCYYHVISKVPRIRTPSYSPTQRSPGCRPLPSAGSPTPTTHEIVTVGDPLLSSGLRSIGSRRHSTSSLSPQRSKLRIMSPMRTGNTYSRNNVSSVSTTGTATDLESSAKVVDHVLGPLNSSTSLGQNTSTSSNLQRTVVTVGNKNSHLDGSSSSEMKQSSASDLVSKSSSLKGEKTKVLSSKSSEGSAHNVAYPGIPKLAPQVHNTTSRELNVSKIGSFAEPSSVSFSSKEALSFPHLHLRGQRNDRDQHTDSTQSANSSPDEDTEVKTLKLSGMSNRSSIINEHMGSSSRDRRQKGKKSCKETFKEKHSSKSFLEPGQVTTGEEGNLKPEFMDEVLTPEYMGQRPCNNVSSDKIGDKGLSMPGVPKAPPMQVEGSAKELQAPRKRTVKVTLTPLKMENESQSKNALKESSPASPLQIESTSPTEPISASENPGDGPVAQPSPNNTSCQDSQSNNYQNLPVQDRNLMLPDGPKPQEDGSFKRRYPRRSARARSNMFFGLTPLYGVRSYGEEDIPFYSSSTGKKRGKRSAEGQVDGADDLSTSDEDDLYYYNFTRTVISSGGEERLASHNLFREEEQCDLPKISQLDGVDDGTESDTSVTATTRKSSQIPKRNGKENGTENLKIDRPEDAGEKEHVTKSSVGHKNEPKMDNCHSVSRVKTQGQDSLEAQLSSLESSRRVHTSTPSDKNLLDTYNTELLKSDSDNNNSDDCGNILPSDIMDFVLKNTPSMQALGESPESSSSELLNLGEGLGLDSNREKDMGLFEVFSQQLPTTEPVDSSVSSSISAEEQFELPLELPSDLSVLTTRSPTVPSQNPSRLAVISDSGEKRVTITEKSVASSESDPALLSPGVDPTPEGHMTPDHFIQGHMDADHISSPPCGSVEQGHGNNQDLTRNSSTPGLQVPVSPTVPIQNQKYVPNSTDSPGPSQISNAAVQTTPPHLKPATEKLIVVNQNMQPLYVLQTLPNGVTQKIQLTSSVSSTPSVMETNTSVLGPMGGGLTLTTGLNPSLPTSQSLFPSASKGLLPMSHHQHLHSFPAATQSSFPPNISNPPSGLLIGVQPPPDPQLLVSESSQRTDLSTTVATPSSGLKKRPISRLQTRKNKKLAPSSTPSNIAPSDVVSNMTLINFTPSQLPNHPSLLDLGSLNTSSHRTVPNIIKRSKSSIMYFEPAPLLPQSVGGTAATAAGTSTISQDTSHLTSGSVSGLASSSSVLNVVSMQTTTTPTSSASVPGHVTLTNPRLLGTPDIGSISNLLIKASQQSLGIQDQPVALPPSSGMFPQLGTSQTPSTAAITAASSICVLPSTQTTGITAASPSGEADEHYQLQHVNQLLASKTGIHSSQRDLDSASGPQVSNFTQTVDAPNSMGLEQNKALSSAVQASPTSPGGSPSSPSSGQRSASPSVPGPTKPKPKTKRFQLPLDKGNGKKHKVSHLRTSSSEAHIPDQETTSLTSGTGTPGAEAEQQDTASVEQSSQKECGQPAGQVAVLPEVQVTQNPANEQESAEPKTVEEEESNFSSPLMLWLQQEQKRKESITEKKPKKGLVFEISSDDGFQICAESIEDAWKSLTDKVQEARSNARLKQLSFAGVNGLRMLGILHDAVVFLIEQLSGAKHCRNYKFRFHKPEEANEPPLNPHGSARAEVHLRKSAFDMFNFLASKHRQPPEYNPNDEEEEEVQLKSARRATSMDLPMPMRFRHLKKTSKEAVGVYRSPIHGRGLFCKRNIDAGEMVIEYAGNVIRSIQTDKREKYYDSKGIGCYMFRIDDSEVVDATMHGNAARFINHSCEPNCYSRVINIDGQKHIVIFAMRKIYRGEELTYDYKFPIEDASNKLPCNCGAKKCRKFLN
UniProt Q9C005: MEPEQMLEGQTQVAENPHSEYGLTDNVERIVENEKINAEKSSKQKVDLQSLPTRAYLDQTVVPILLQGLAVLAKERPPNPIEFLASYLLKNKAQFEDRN
UniProt Q9UBL3: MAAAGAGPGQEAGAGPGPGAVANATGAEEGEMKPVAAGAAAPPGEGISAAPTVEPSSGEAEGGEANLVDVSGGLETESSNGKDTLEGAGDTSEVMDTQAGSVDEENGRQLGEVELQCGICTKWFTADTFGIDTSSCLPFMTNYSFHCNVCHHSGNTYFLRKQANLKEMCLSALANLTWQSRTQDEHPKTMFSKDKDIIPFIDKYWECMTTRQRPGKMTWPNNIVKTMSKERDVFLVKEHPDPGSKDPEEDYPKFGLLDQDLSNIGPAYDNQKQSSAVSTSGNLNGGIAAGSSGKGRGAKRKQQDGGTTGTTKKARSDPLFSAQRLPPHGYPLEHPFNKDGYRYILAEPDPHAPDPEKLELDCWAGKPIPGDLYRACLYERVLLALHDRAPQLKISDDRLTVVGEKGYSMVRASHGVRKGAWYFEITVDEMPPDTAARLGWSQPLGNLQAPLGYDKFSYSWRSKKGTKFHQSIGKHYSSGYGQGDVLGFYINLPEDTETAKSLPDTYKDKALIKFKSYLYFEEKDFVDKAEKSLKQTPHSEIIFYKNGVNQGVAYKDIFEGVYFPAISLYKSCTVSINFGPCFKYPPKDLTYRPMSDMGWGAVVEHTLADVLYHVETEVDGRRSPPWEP

Assay [1] addresses PAX5 (human (endogenous in KIS-1, REH, GM12878, NALM6 and RAJI)) (UniProt Q02548). The assay can be described thus: affinity purification with mass spectrometry; anti-PAX5 (sc-1974) co-IP from KIS-1 + EBF1 nuclear extracts (lysed with Benzonase), cells with or without DOX induction of EBF1 for 48 h; normal goat IgG control; gel bands, trypsin, nanoLC-MS/MS; two replicates.
Assay [2] shares this target. The assay can be described thus: affinity purification with mass spectrometry; PAX5 co-IP from RAJI cells, mass spectrometry; two replicates.
For assay [3] the target is unchanged. The assay can be described thus: affinity purification with mass spectrometry; PAX5 co-IP from NALM6 cells, mass spectrometry; two replicates.

Results are given in words; binding and its absence hold for the method and conditions named. Binding seen in cells or lysates may run through a third protein. Here binding means that the protein was enriched with, or labelled near, the bait; the list need not be complete.

Turning to TAF6 (from UniProt P49848 1-677), in assay [1], the binding entry was “binds”.
For MEN1 (from UniProt O00255 1-610), the binding entry in assay [2] and in assay [1] was “binds” throughout.
On to RBBP5 (from UniProt Q15291 1-538), for which the binding entry in assay [2], in assay [3] and in assay [1] was “binds” throughout.
As to “KMT2A, the catalytic component of MLL (from UniProt Q03164 1-3969)”, the binding entry in assay [2], in assay [3] and in assay [1] was “binds” each time.
For the substance DPY30 (from UniProt Q9C005 1-99), the binding entry in assay [1] is recorded as “binds”.
Take ASH2L (from UniProt Q9UBL3 1-628): the binding result in assay [2] and in assay [1] was “binds” in each case.
